From article PMC12518127
Results are given in words; binding and its absence hold for the method and conditions named. Binding seen in cells or lysates may run through a third protein. Some entries that bind do so weakly or less than the wild type. For some assays here: Tags and fused reporters may be left off the sequences shown. Blank lines part the entries; values can stand above or below the binder they belong to.

Columns and labels:
[1] = target: mCherry-tagged K14 (UniProt P02533); test: co-IP; IP with anti-mCherry antibody from lysates of UM-UC5 and UM-UC14 cells expressing K14-mCherry, immunoblot; control cells lacking K14-mCherry
[2] = target: T1, mCherry-tagged K14, P02533; test: as above; settings: remark: other sources report otherwise
T1 chain: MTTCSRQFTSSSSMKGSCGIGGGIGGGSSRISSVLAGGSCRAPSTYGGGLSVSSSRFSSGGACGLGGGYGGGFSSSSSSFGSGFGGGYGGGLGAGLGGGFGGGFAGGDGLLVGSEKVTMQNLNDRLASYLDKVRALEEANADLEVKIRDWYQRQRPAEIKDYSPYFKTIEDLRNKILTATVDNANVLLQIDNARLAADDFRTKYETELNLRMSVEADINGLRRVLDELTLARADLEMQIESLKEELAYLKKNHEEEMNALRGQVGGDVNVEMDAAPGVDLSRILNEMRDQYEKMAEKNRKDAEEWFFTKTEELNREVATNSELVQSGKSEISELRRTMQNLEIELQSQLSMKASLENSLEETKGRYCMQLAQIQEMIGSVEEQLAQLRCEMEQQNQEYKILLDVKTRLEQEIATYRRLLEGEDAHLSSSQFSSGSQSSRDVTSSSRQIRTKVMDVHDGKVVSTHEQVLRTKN

- binding [1]: binds
B1: Tripartite Motif-containing protein 29 (TRIM29) (protein, UniProt Q14134 1-588)
chain: MEAADASRSNGSSPEARDARSPSGPSGSLENGTKADGKDAKTTNGHGGEAAEGKSLGSALKPGEGRSALFAGNEWRRPIIQFVESGDDKNSNYFSMDSMEGKRSPYAGLQLGAAKKPPVTFAEKGELRKSIFSESRKPTVSIMEPGETRRNSYPRADTGLFSRSKSGSEEVLCDSCIGNKQKAVKSCLVCQASFCELHLKPHLEGAAFRDHQLLEPIRDFEARKCPVHGKTMELFCQTDQTCICYLCMFQEHKNHSTVTVEEAKAEKETELSLQKEQLQLKIIEIEDEAEKWQKEKDRIKSFTTNEKAILEQNFRDLVRDLEKQKEEVRAALEQREQDAVDQVKVIMDALDERAKVLHEDKQTREQLHSISDSVLFLQEFGALMSNYSLPPPLPTYHVLLEGEGLGQSLGNFKDDLLNVCMRHVEKMCKADLSRNFIERNHMENGGDHRYVNNYTNSFGGEWSAPDTMKRYSMYLTPKGGVRTSYQPSSPGRFTKETTQKNFNNLYGTKGNYTSRVWEYSSSIQNSDNDLPVVQGSSSFSLKGYPSLMRSQSPKAQPQTWKSGKQTMLSHYRPFYVNKGNGIGSNEAP

- binding [2]: no binding
B2: FAM83H, Q6ZRV2 1-1179 (protein)
chain: MARRSQSSSQGDNPLAPGYLPPHYKEYYRLAVDALAEGGSEAYSRFLATEGAPDFLCPEELEHVSRHLRPPQYVTREPPEGSLLDVDMDGSSGTYWPVNSDQAVPELDLGWPLTFGFQGTEVTTLVQPPPPDSPSIKDEARRMIRSAQQVVAVVMDMFTDVDLLSEVLEAAARRVPVYILLDEMNAQHFLDMADKCRVNLQHVDFLRVRTVAGPTYYCRTGKSFKGHVKEKFLLVDCAVVMSGSYSFMWSFEKIHRSLAHVFQGELVSSFDEEFRILFAQSEPLVPSAAALARMDAYALAPYAGAGPLVGVPGVGAPTPFSFPKRAHLLFPPPREEGLGFPSFLDPDRHFLSAFRREEPPRMPGGALEPHAGLRPLSRRLEAEAGPAGELAGARGFFQARHLEMDAFKRHSFATEGAGAVENFAAARQVSRQTFLSHGDDFRFQTSHFHRDQLYQQQYQWDPQLTPARPQGLFEKLRGGRAGFADPDDFTLGAGPRFPELGPDGHQRLDYVPSSASREVRHGSDPAFAPGPRGLEPSGAPRPNLTQRFPCQAAARPGPDPAPEAEPERRGGPEGRAGLRRWRLASYLSGCHGEDGGDDGLPAPMEAEAYEDDVLAPGGRAPAGDLLPSAFRVPAAFPTKVPVPGPGSGGNGPEREGPEEPGLAKQDSFRSRLNPLVQRSSRLRSSLIFSTSQAEGAAGAAAATEKVQLLHKEQTVSETLGPGGEAVRSAASTKVAELLEKYKGPARDPGGGAGAITVASHSKAVVSQAWREEVAAPGAVGGERRSLESCLLDLRDSFAQQLHQEAERQPGAASLTAAQLLDTLGRSGSDRLPSRFLSAQSHSTSPQGLDSPLPLEGSGAHQVLHNESKGSPTSAYPERKGSPTPGFSTRRGSPTTGFIEQKGSPTSAYPERRGSPVPPVPERRSSPVPPVPERRGSLTLTISGESPKAGPAEEGPSGPMEVLRKGSLRLRQLLSPKGERRMEDEGGFPVPQENGQPESPRRLSLGQGDSTEAATEERGPRARLSSATANALYSSNLRDDTKAILEQISAHGQKHRAVPAPSPGPTHNSPELGRPPAAGVLAPDMSDKDKCSAIFRSDSLGTQGRLSRTLPASAEERDRLLRRMESMRKEKRVYSRFEVFCKKEEASSPGAGEGPAEEGTRDSKVGKFVPKILGTFKSKK
